The text below walks through data of the supplement of paper PMC11006884.

Sequences of proteins named here, by UniProt entry; tags and fusion partners are left off. A change or cut given only in a name is not applied to a line headed by its entry.
UniProt Q15910, whole entry, looked up: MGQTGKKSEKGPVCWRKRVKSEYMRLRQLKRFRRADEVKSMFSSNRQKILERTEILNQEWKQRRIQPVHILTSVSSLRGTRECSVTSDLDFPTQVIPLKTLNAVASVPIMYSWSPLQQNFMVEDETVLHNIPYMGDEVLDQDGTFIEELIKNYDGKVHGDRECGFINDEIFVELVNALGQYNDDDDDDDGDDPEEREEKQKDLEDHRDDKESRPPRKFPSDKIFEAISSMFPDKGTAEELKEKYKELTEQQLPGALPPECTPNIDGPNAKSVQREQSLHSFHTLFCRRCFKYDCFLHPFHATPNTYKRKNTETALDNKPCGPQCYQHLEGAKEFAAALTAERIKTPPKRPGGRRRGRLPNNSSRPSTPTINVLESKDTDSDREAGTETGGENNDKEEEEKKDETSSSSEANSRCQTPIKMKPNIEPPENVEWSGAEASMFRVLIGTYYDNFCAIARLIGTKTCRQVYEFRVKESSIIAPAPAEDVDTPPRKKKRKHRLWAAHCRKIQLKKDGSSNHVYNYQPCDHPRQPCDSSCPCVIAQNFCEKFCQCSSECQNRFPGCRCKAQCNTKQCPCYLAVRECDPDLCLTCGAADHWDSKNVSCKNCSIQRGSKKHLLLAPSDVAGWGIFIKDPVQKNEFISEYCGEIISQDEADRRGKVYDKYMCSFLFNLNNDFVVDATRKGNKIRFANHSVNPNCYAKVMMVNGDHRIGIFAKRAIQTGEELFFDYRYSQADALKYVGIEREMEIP
UniProt Q15181: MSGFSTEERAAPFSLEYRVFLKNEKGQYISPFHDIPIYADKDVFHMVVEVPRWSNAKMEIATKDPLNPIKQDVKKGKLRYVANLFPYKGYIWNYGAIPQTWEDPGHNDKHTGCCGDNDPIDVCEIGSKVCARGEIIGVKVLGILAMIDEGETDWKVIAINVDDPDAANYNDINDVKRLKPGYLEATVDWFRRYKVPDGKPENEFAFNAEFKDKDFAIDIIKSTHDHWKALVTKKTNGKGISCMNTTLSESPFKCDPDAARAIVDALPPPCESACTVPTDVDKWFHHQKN
UniProt Q15417: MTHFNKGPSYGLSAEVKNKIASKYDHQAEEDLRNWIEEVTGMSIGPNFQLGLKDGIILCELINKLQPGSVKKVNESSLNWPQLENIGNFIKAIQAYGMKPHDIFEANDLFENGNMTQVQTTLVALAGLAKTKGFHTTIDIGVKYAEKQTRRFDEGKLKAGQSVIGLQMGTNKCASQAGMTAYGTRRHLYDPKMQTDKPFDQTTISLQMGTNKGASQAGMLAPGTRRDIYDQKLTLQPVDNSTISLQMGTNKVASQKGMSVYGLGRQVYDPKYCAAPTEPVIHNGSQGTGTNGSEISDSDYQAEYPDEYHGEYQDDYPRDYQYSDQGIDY
UniProt Q17RS7: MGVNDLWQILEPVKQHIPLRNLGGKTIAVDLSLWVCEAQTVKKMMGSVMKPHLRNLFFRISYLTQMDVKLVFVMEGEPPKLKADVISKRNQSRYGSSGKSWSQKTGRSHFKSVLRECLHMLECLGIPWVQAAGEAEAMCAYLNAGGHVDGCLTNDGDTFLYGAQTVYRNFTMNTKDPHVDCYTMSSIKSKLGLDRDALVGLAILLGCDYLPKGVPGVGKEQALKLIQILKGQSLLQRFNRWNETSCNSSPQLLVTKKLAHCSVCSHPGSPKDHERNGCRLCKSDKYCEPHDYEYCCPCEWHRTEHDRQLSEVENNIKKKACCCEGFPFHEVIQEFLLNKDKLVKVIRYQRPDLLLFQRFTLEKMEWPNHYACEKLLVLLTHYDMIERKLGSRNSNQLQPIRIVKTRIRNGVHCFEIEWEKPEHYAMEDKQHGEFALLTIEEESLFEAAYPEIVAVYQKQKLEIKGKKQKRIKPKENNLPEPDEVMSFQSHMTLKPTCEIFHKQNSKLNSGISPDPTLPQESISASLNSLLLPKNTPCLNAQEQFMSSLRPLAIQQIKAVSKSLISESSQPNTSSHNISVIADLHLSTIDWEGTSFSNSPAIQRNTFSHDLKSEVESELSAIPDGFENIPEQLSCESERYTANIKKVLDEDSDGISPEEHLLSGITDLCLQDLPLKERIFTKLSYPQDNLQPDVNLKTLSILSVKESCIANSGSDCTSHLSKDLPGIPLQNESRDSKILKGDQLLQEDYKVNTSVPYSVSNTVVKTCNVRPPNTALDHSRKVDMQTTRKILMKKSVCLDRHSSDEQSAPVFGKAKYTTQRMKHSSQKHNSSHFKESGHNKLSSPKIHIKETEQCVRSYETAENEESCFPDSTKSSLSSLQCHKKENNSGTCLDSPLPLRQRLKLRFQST
UniProt Q15185: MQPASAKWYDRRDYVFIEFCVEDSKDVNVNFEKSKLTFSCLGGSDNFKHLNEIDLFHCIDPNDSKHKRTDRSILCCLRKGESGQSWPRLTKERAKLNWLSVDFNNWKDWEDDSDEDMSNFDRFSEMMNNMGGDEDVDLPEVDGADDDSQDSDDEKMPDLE
UniProt Q16881, whole entry: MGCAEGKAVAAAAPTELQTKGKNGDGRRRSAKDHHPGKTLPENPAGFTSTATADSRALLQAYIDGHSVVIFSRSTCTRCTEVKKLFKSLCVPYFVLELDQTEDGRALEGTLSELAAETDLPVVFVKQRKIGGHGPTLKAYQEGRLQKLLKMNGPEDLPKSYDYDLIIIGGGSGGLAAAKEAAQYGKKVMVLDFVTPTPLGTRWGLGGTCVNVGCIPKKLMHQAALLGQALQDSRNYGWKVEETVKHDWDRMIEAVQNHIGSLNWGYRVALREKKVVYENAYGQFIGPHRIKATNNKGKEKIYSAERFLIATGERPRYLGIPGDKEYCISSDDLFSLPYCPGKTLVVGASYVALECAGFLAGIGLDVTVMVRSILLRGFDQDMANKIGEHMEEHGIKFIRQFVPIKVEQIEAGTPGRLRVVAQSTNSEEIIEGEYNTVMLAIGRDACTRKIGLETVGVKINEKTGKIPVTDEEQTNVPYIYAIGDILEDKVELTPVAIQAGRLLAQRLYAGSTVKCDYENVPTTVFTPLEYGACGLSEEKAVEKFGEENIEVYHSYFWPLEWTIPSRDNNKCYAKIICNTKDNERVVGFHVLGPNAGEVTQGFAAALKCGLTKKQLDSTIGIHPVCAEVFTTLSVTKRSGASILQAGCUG
UniProt Q53EZ4: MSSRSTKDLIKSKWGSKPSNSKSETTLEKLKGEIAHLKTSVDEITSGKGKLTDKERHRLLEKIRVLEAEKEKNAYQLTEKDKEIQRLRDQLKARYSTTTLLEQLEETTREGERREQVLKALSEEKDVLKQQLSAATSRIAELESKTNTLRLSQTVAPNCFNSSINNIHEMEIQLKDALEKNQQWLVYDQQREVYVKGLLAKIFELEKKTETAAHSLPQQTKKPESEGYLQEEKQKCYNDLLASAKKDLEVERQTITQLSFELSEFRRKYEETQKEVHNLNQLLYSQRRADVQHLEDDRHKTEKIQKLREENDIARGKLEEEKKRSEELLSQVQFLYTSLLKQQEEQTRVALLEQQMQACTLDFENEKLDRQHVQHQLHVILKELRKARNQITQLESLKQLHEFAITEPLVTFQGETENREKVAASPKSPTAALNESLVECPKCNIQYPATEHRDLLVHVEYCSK
UniProt Q15464: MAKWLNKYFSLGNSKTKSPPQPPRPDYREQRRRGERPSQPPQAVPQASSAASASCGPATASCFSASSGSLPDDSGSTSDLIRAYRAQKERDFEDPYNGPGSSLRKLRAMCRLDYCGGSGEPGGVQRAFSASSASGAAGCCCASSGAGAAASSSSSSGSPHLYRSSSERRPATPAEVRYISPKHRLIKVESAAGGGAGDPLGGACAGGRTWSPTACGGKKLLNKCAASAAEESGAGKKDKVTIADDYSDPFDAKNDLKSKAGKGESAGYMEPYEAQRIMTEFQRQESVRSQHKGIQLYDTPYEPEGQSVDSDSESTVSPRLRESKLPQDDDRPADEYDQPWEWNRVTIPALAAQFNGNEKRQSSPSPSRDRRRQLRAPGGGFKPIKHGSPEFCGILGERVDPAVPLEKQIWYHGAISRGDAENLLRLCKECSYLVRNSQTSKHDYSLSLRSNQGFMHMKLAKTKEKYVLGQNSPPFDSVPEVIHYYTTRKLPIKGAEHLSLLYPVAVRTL
UniProt Q15029: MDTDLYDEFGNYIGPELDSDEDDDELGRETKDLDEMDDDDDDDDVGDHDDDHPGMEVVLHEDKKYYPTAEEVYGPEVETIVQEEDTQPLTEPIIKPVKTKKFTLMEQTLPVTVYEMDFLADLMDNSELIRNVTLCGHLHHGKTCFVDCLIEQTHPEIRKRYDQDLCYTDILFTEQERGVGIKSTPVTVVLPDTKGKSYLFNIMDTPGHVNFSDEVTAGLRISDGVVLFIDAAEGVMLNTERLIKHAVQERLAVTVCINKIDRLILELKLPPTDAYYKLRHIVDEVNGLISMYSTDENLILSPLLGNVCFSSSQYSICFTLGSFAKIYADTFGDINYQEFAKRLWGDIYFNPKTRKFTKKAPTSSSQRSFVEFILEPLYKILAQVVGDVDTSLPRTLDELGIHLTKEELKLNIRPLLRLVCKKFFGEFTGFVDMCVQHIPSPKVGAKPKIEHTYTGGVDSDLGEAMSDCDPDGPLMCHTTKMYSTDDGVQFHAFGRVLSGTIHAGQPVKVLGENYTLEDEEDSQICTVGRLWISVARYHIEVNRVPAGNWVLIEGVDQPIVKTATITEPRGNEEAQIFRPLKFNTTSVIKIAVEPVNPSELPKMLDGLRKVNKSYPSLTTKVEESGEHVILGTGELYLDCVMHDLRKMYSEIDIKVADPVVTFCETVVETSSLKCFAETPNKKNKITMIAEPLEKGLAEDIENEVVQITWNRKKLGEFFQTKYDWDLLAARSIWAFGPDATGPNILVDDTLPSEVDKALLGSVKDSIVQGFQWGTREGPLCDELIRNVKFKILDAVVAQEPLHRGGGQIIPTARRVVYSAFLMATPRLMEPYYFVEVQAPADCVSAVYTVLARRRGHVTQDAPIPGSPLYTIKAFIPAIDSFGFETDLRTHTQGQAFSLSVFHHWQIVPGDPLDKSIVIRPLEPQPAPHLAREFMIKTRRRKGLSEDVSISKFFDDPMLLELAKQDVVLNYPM
UniProt Q4VC31: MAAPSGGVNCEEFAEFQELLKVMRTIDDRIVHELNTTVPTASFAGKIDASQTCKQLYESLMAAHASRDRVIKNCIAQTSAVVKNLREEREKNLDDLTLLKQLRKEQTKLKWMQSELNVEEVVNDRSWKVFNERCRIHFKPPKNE
UniProt Q2M1P5: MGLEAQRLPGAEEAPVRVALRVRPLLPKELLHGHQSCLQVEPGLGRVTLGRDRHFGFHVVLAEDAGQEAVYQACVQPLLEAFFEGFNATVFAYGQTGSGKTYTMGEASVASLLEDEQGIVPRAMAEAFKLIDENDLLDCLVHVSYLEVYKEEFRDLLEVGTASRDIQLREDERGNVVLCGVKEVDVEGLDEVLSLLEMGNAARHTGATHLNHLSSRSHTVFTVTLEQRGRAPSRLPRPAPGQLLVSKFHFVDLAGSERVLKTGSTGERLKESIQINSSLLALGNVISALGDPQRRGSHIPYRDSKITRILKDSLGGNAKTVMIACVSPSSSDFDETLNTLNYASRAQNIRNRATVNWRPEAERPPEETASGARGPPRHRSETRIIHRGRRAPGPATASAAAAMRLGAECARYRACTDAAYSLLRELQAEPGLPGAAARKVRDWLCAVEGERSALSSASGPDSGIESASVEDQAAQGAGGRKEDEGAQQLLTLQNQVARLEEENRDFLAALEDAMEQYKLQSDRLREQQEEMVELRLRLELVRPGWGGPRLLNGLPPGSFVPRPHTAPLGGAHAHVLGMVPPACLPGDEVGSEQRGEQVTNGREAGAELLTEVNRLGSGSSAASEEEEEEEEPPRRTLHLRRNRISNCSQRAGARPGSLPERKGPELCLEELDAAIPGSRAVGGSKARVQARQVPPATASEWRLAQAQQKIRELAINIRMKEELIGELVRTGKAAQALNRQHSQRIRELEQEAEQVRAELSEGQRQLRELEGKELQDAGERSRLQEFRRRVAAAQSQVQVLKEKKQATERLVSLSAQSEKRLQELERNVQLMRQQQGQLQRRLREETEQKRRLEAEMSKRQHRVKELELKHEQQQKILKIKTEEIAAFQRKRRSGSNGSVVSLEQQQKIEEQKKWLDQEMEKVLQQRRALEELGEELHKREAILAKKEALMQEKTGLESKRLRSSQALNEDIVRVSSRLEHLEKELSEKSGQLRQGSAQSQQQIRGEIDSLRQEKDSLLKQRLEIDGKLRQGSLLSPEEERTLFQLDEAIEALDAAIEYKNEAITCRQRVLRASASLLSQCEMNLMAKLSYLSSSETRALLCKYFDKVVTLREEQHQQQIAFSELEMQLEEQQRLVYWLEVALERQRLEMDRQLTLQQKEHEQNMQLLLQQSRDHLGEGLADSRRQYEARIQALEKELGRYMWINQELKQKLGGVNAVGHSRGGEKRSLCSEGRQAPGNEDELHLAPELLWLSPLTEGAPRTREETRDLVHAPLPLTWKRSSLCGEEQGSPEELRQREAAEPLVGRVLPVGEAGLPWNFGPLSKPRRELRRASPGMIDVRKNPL

The targets with a hit were mostly taken out for another list; the other results follow. The data scatter; read single values as rough. This is a selection; strong and weak results do not stand in their true shares.

Compound in this test: COC(=O)/C=C/c1ccccc1 [methyl cinnamate]
In words: log2 ratio of iodoacetamide-alkyne labeling of the cysteine site, DMSO over compound (competition); higher = stronger covalent engagement of the cysteine by the compound, active = 1 or more. As to conditions: 500 µM; treatment time 1 h; system: HEK293T cell lysate. In outline:
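For each cysteine, the log2 competition ratio is mean control-channel reporter intensity over mean compound-channel reporter intensity. HEK293T lysate (2 mg/mL) was exposed to vehicle or electrophile (500 µM, 1 h, ambient temperature), labelled with iodoacetamide alkyne (1 h), clicked to sCIP-TMT reagents, digested overnight with trypsin at 37 °C, streptavidin-enriched and analysed by Orbitrap Eclipse LC-MS/MS with FAIMS and FragPipe. Cysteines quantified in only one of three replicates, each with duplicate channels, were excluded.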
In the case of PDS5A C581 (UniProt Q29RF7), the “log2 ratio of iodoacetamide-alkyne labeling” value (“log2 ratio” below) is inactive: 0.265.
The result for WDR43 C9 (UniProt Q15061) reads inactive: 0.271; that for SAFB C448 (UniProt Q15424), inactive: 0.0373.
The result for UniProt Q1ED39_C172 reads inactive: 0.245.
The value for UniProt Q16637_C60 was inactive: 0.438.
Turning to PDS5A C1093 (UniProt Q29RF7), the “log2 ratio” value is inactive: 0.258.
The value for MED1 C135 (UniProt Q15648) was inactive: 0.0948; that for SMAD2 C312 (UniProt Q15796) was inactive: 0.261; that for LLGL1 C636 (UniProt Q15334) was inactive: 0.322.
The value for SF3B3 C1156 (UniProt Q15393) was inactive: 0.0525; that for RBBP7 C277 (UniProt Q16576) was inactive: 0.00508.
Consider FAM98B C63 (UniProt Q52LJ0), for which the “log2 ratio” value was inactive: -0.0358.
The result for EZH2 C83 (UniProt Q15910) reads inactive: 0.398; that for PCBP2 C118 (UniProt Q15366), inactive: 0.151; that for IMMT C603 (UniProt Q16891), inactive: 0.121.
The result for PPA1 C274 (UniProt Q15181) reads inactive: 0.152.
The result for UniProt Q16512_C317 reads inactive: -0.0584; that for PDCD4 C350 (UniProt Q53EL6), inactive: 0.126.
Regarding DECR1 C116 (UniProt Q16698), the “log2 ratio” value was inactive: 0.337.
With ANO6 C105 (UniProt Q4KMQ2), the “log2 ratio” value is inactive: 0.207.
The value for CNN3 C173 (UniProt Q15417) was inactive: 0.3; that for TSR1 C126 (UniProt Q2NL82) was inactive: 0.0706.
The result for GEN1 C668 (UniProt Q17RS7) reads inactive: -0.0508.
The value for PTGES3 C75 (UniProt Q15185) was inactive: 0.241; that for LLGL1 C697 (UniProt Q15334) was inactive: 0.258; that for UniProt Q4ZIN3_C129 was inactive: 0.131.
Regarding TXNRD1 C209 (UniProt Q16881), the “log2 ratio” value was inactive: -0.242.
The result for CEP55 C359 (UniProt Q53EZ4) reads inactive: 0.186; that for UniProt Q15369_C11, inactive: 0.134; that for LACTB2 C100 (UniProt Q53H82), inactive: 0.153.
The value for SHB C392 (UniProt Q15464) was inactive: 0.14; that for EFTUD2 C663 (UniProt Q15029) was inactive: -0.346; that for CCDC58 C74 (UniProt Q4VC31) was inactive: 0.325.
The value for UniProt Q2M1P5_C667 was inactive: 0.175.
For the target ERCC6L C825 (UniProt Q2NKX8), the “log2 ratio” value was inactive: 0.215.
The value for UniProt Q16352_C54 was inactive: 0.284.
The value for UniProt Q15631_C225 was inactive: 0.276.
